These are yes or no findings as the source states them, for the method shown. In cells and extracts the contact can be indirect. Some results given as binding are weak or reduced against the parent protein; the word gives no strength.
Biological target: HIV-1 Tat protein as expressed in HIV-1IIIB-infected H9 lymphocytes (HIV-1) (UniProt P04608)
Test: co-immunoprecipitation from H9HIV-1IIIB cells with rabbit polyclonal anti-HIV-1 Tat antibody and protein G-agarose; bound cdk9 detected by immunoblotting

The chains behind the UniProt entries cited, without tags or fusion partners. Where a name states a change or a piece, a line headed by the entry shows the natural chain unless it says otherwise.
UniProt P04608: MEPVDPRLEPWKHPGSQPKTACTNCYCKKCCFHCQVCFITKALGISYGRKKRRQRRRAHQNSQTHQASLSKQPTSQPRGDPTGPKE
UniProt O60563: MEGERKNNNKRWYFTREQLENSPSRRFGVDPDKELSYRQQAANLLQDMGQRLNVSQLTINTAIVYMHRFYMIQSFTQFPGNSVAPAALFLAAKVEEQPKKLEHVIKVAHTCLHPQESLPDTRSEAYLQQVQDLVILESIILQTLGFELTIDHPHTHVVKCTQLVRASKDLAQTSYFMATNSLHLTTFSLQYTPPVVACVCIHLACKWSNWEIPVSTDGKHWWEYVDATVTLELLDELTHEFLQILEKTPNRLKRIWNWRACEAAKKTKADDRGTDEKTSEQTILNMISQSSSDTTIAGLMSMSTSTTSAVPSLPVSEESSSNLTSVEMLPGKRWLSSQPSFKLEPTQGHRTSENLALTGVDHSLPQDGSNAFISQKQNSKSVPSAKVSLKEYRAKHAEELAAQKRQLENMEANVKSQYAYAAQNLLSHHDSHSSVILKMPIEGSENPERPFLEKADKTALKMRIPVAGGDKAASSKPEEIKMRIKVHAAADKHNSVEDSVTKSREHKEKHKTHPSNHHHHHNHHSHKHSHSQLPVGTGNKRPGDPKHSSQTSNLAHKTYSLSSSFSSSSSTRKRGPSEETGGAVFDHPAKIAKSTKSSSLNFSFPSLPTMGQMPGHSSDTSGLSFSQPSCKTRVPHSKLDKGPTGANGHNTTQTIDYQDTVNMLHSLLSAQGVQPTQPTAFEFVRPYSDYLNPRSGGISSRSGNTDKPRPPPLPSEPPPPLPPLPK

Question: With “cyclin T1-cdk9 complex (from UniProt O60563 1-726; P50750 1-372)” as the substance, how does the binding read?
Answer: binds
